The nature of this series: Stability in mouse liver homogenate. The note with it: conclusion in words.

Each structure is given as a SMILES string.

For `COC(=O)C1=C(CN2CC(F)(F)C[C@H]2C(=O)O)NC(c2nccs2)=N[C@@]1(C)c1ccc(F)cc1` [Example 13, (S)-6-((S)-2-Carboxy-4,4-difluoro-pyrrolidin-1-ylmethyl)-4-(4-fluoro-phenyl)-4-methyl-2-thiazol-2-yl-1,4-dihydro-pyrimidine-5-carboxylic acid methyl ester], the “stability in liver homogenate treated with saline” value is given as “stable”.
